Laboratory results taken from article doi:10.64898/2025.12.29.696918.
These are yes or no findings as the source states them, for the method shown. In cells and extracts the contact can be indirect. Here binding means that the protein was enriched with, or labelled near, the bait; the list need not be complete. For some assays here: No binding means not detected with the bait.

What was measured:
[1] = target: T1, biotinylated P7-Pen (SLAMF1-derived peptide P7 joined to penetratin); assay: affinity purification with mass spectrometry
T1 sequence (peptide, biotin covalently linked to the C-terminal lysine): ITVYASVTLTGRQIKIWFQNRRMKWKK

[2] = target: T2, biotinylated Penetratin (control peptide); assay: affinity purification with mass spectrometry
T2 sequence (peptide, biotin covalently linked to the C-terminal lysine): RQIKIWFQNRRMKWKK

- binding [1]: binds
- binding [2]: no binding
B1: lysine deacetylase ABHD14B (enzyme, UniProt Q96IU4 1-210)
chain: MAASVEQREGTIQVQGQALFFREALPGSGQARFSVLLLHGIRFSSETWQNLGTLHRLAQAGYRAVAIDLPGLGHSKEAAAPAPIGELAPGSFLAAVVDALELGPPVVISPSLSGMYSLPFLTAPGSQLPGFVPVAPICTDKINAANYASVKTPALIVYGDQDPMGQTSFEHLKQLPNHRVLIMKGAGHPCYLDKPEEWHTGLLDFLQGLQ
